Data as given in US5015661A, “Chromanes and their pharmaceutical compositions and methods” (Hoffmann-La Roche Inc., priority 1989, dated 1991).
Counter-ions that a name gives are not always drawn. At least one compound was matched to its structure with a doubt left.

Target: superoxide-dependent, iron-promoted lipid peroxidation of native rat heart cardiac lipid liposomes
Test: Lipid peroxidation inhibition (in vitro testing of antiperoxidative agents, ANTI-OX), hypoxanthine-xanthine oxidase-Fe3+.ADP, rat cardiac liposomes, MDA equivalents
Assay type: biochemical
Settings: 60 min, 37° C., screened at 1.0 μM, IC50 determined if inhibition ≥ 50%, read-out: ANTI-OX IC-50
Method: The test system employs hypoxanthine-xanthine oxidase (XO)-Fe^3+. ADP as the free radical generator and purified, native rat-heart membrane phosphoglyceride in Hepes-KCl buffer, pH 7.4, as the substrate. Inhibition of superoxide-dependent, iron-promoted lipid peroxidation in the linear reaction phase (after 1 hour of reaction) is measured as the net formation of thiobarbituric acid (TBA)-reactive material. In this system, the TBA-reactive material, isolated by HPLC, is exclusively (>95%) malondialdehyde (MDA), a fragmentation end-product arising from fatty acyl hydroperoxides and cyclic endoperoxides. […]
a) Isolation and purification of Rat Cardiac Lipid […]
d) Thiobarbituric Acid Reaction or Determination of Malondialdehvde Equivalents Malondialdehyde (MDA) equivalents were measured as thiobarbituric acid (TBA)-reactive material by the following modification of published methods. […] After this time, the tubes were plunged into an ice water bath, and the reaction was immediately stopped with 0.5 ml ice-cold 91% TCA followed by 2.0 ml CHCl3 After centrifugation for 30 minutes at 2000 rpm in a Sorval HL-8 rotor (4° C.), the absorbance of the washed, pink upper phase was read at 532 nm. […] Computer-assisted regression analysis of the standard curve was used to quantify the molar amounts of MDA equivalents in the experimental samples. […]

SMILES	IC50 [nM]
Cc1c(C)c2c(c(C)c1O)CCC(C)(CCc1ccccc1)O2 (centres unmarked) [Example 56, 3,4-Dihydro-2,5,7,8-tetramethyl-2-(2-phenylethyl)-2H-1-benzopyran-6-ol]	> 1000
COc1cc(CN)cc(CCC2(C)CCc3c(C)c(O)c(C)c(C)c3O2)c1O (racemic) [Example 68, rac-{2-[5-(Aminomethyl)-2-hydroxy-3-methoxyphenyl]ethyl}-3,4-dihydro-2,5,7,8-tetramethyl-2H-1-benzopyran-6-ol hydrochloride]	1000
